Reference: article PMC4053365 (PLoS ONE, 2014)

How the values were obtained:
mice [1] = test: Tail-flick test (acute thermal nociception); assay type: in vivo; settings: Mus musculus, sc, 0.5 h, s.c., 30 min after administration, read-out: ED50 (95% CL) Tail-flick test
mice [2] = test: Hot-plate test (acute thermal nociception); assay type: in vivo; settings: Mus musculus, sc, 0.5 h, s.c., 30 min after administration, read-out: ED50 (95% CL) Hot-plate test

For CN1CC[C@]23c4c5ccc(O)c4O[C@H]2[C@@H](O)C=C[C@H]3[C@H]1C5 [Morphine, reference compound], the ED50 (mice [1]) was 3.06 mg/kg and the ED50 (mice [2]) was 2.43 mg/kg.
